The structures appear in SMILES notation. The list does not hold the whole screen: it gathers tests that were run many times, whatever their T/C, doses with no T/C, and many T/C values between a quarter and a half above the control. Other doses and runs of a compound stand elsewhere. T/C: endpoint of the treated group in % of that of the vehicle group. Schedules are NCI's codes, read here as Q, the interval in days (D) or hours (H), X, the number of doses. Some T/C values carry the count of animals alive at the toxicity check (mostly the fifth day); where none is given, no animal had died by that day. Some entries were tested several times; the values are given in rising order. Some T/C values are negative: the treated tumours shrank. Some doses have a count of surviving animals in place of a T/C: the source files T/C as zero there, which appears to mark a toxic dose or a test without result, not a measured value. Survivors were counted at the toxicity check, usually on the fifth day, unless a day is given; later deaths do not show.

This passage reports survivor count and T/C results from PubChem BioAssay AID206 (DTP/NCI, 2004).

The assay deals with nude mice, HT29 intrarenal xenograft, tumor weight T/C. In words: NCI In Vivo Anticancer Drug Screen. Data for tumor model HT29;CX-1 Human Adenocarcinoma (MER+) (intrarenal inoculation) in NU/NU Swiss (nude) mice. As to conditions: T/C endpoint: mean tumor weight change, higher T/C = larger tumour. The gist of the method: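 Tumor-bearing mice received test compound or vehicle, and tumor size or survival was recorded. Values are the treated-group measurement divided by the vehicle-treated control measurement.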

Setting [1] is: dose: 8.0 mg/kg/injection, schedule: Q04DX004 (sc), vehicle: water.

Turning to `NC(Cc1ccc(N(CCCl)CCCl)cc1)C(=O)O` (centres undefined), the survivor count is 3 of 6 on day 15 (dose: 20.0 mg/kg/injection, schedule: Q04DX004 (sc), vehicle: Klucel (hydroxypropylcellulose) (HPC)); 0 of 6 on day 15 and 1 of 6 on day 15 (dose: 40.0 mg/kg/injection, schedule: Q04DX004 (sc), vehicle: Klucel (hydroxypropylcellulose) (HPC)); 0 of 6 on day 15 (dose: 80.0 mg/kg/injection, schedule: Q04DX004 (sc), vehicle: Klucel (hydroxypropylcellulose) (HPC)). For `COc1cccc2c1C(=O)c1c(O)c3c(c(O)c1C2=O)C[C@@](O)(C(=O)CO)C[C@@H]3OC1CC(N)C(OC)C(C)O1` (some centres undefined), the survivor count is, setting by setting: (dose: 6.25 mg/kg/injection, schedule: Q04DX004 (sc), vehicle: saline) 1 of 3 on day 15; (dose: 12.5 mg/kg/injection, schedule: Q04DX004 (sc), vehicle: saline) 0 of 3 on day 15; (dose: 25.0 mg/kg/injection, schedule: Q04DX004 (sc), vehicle: saline) 0 of 3 on day 15. For `CCN=C=NCCCN(C)C`, the survivor count (dose: 200.0 mg/kg/injection, schedule: Q04DX004 (sc), vehicle: saline) is listed as 0 of 6 on day 15.

Turning to `O=S(=O)(SC(S(=O)(=O)c1ccccc1)S(=O)(=O)c1ccccc1)c1ccccc1`, the survivor count (dose: 800.0 mg/kg/injection, schedule: Q04DX004 (sc), vehicle: Klucel (hydroxypropylcellulose) (HPC)) is listed as 1 of 6 on day 15. Turning to `O=C(O)CSc1c(Cl)c(=O)oc2ccc(Cl)cc12`, the T/C (dose: 600.0 mg/kg/injection, schedule: Q04DX004 (sc), vehicle: Klucel (hydroxypropylcellulose) (HPC), evaluated on day 15) is 141 % of control. Also, the survivor count is, setting by setting: (dose: 1200.0 mg/kg/injection, schedule: Q04DX004 (sc), vehicle: Klucel (hydroxypropylcellulose) (HPC)) 3 of 6 on day 15; (dose: 2400.0 mg/kg/injection, schedule: Q04DX004 (sc), vehicle: Klucel (hydroxypropylcellulose) (HPC)) 0 of 5 on day 15. On to `CC(=O)Nc1ccc(O)c(O)c1`, for which the T/C (dose: 1200.0 mg/kg/injection, schedule: Q04DX004 (sc), vehicle: saline with Tween-80, evaluated on day 15) is 149 % of control. In the case of `CC1=C(/C=C/C(C)=C/C=C/C(C)=C/C=O)C(C)(C)CCC1`, where the note is “dose: 1200.0 mg/kg/injection, schedule: Q04DX004 (sc), vehicle: saline with Tween-80”, the survivor count was 3 of 6 on day 15.

In the case of `c1ccc(CN2CCOC2)cc1`, for the setting “dose: 200.0 mg/kg/injection, schedule: Q01DX010 (sc), vehicle: suspension in saline”, the survivor count is 1 of 3 on day 11.

As for `O=C1C=CN(C2OC(CO)C(O)C2O)C(=O)C1` (centres undefined), the T/C (dose: 50.0 mg/kg/injection, schedule: Q01DX010 (sc), vehicle: saline, evaluated on day 11) was -1, 70, 94, 100, 116 [2 of 2 alive on day 11], 130 % of control; the T/C (dose: 100.0 mg/kg/injection, schedule: Q01DX010 (sc), vehicle: saline, evaluated on day 11) is 1, 22 [2 of 2 alive on day 11], 41 [2 of 2 alive on day 11], 43, 56 [2 of 2 alive on day 11], 96, 114 % of control [2 of 3 alive on day 11]; the T/C (dose: 200.0 mg/kg/injection, schedule: Q01DX010 (sc), vehicle: saline, evaluated on day 11) is -27 [2 of 3 alive on day 11], 11 [2 of 3 alive on day 11], 28 [5 of 6 alive on day 11], 90 [2 of 2 alive on day 11], 95 % of control; the T/C (dose: 400.0 mg/kg/injection, schedule: Q01DX010 (sc), vehicle: saline, evaluated on day 11) is 21 [2 of 3 alive on day 11], 49 [2 of 3 alive on day 11], 82 % of control. Moreover, the survivor count (dose: 200.0 mg/kg/injection, schedule: Q01DX010 (sc), vehicle: saline) is 0 of 3 on day 11; the survivor count (dose: 400.0 mg/kg/injection, schedule: Q01DX010 (sc), vehicle: saline) is 0 of 3 on day 11 and 1 of 3 on day 11. With `C[Si](C)(C)n1nnn(-c2ccccc2)c1=O`, the T/C (dose: 150.0 mg/kg/injection, schedule: Q04DX004 (sc), vehicle: saline with Tween-80, evaluated on day 15) is 131 % of control.

On to `c1cnc2ncncc2n1`, for which the survivor count (dose: 200.0 mg/kg/injection, schedule: Q01DX010 (sc), vehicle: saline with Tween-80) is 0 of 3 on day 20. Turning to `Cc1ncc(CNC(=O)N(CCCl)N=O)c(N)n1`, the survivor count (dose: 37.5 mg/kg/injection, schedule: Q04DX004 (sc), vehicle: saline) is on record as 1 of 6 on day 15 and the survivor count (dose: 75.0 mg/kg/injection, schedule: Q04DX004 (sc), vehicle: saline) was 0 of 6 on day 15. Turning to `C[n+]1c(/C=C\C=C\N2CCCCC2)sc2ccccc21`, the survivor count runs as follows: (dose: 6.0 mg/kg/injection, schedule: Q04DX004 (sc), vehicle: Klucel (hydroxypropylcellulose) (HPC)) 0 of 6 on day 15; (dose: 12.0 mg/kg/injection, schedule: Q04DX004 (sc), vehicle: Klucel (hydroxypropylcellulose) (HPC)) 0 of 6 on day 15.

With `CC(=O)C1(O)Cc2c(O)c3c(c(O)c2C(OC2CC(N)C(O)C(C)O2)C1)C(=O)c1ccccc1C3=O` (centres undefined), the survivor count is, setting by setting: (dose: 2.0 mg/kg/injection, schedule: Q04DX004 (sc), vehicle: water) 2 of 5 on day 15; (dose: 4.0 mg/kg/injection, schedule: Q04DX004 (sc), vehicle: water) 0 of 6 on day 15; under setting [1], 0 of 6 on day 15.

With `O=C(O)CCCCCCCC(=O)O`, the T/C is, setting by setting: (dose: 300.0 mg/kg/injection, schedule: Q04DX004 (sc), vehicle: distilled water + Tween-80, evaluated on day 15) 137 % of control; (dose: 1200.0 mg/kg/injection, schedule: Q04DX004 (sc), vehicle: distilled water + Tween-80, evaluated on day 15) 130 % of control.

Turning to `Cc1[nH]c(=O)[nH]c(=O)c1N(CCF)CCCl`, the survivor count (dose: 80.0 mg/kg/injection, schedule: Q01DX010 (sc), vehicle: Klucel (hydroxypropylcellulose) (HPC)) is reported as 0 of 3 on day 20. Regarding `NCC1CCC(C(=O)O)CC1` (centres undefined), the T/C (dose: 200.0 mg/kg/injection, schedule: Q04DX004 (sc), vehicle: saline with Tween-80, evaluated on day 15) is 148 % of control. With `CCC1=C[C@H]2CN(CCc3c([nH]c4ccccc34)[C@@](C(=O)OC)(c3cc4c(cc3OC)N(C)[C@H]3[C@@](O)(C(=O)NC)[C@H](OC(C)=O)[C@]5(CC)C=CCN6CC[C@]43[C@@H]65)C2)C1`, the survivor count under setting [1] was 0 of 6 on day 15. Regarding `CC(=O)NC(CCc1ccc(Cl)c(Cl)c1)c1cccc(O)c(=O)c1` (centres undefined), the T/C (dose: 400.0 mg/kg/injection, schedule: Q04DX004 (sc), vehicle: Klucel (hydroxypropylcellulose) (HPC), evaluated on day 15) is 129 % of control.

For `CN(N=O)C(N)=O`, the T/C is 144 % of control (dose: 25.0 mg/kg/injection, schedule: Q04DX004 (sc), vehicle: suspension in saline, evaluated on day 15) and 144 % of control (dose: 50.0 mg/kg/injection, schedule: Q04DX004 (sc), vehicle: suspension in saline, evaluated on day 15). In addition, the survivor count is, setting by setting: (dose: 50.0 mg/kg/injection, schedule: Q01DX010 (sc), vehicle: saline with Tween-80) 0 of 3 on day 20; (dose: 100.0 mg/kg/injection, schedule: Q01DX010 (sc), vehicle: saline with Tween-80) 0 of 3 on day 20; (dose: 200.0 mg/kg/injection, schedule: Q04DX004 (sc), vehicle: suspension in saline) 0 of 4 on day 15. For the compound `O=[Te]=O`, the survivor count by setting is: (dose: 100.0 mg/kg/injection, schedule: Q04DX004 (sc), vehicle: Klucel (hydroxypropylcellulose) (HPC)) 0 of 6 on day 15; (dose: 200.0 mg/kg/injection, schedule: Q04DX004 (sc), vehicle: Klucel (hydroxypropylcellulose) (HPC)) 0 of 6 on day 15. Regarding `C=C1C(=O)OCC1C(=O)O` (centres undefined), the survivor count (dose: 400.0 mg/kg/injection, schedule: Q04DX004 (sc), vehicle: suspension in saline) was 0 of 6 on day 15. `CSC(SC)=C1C(=O)NC(=O)NC1=O`: the T/C (dose: 300.0 mg/kg/injection, schedule: Q04DX004 (sc), vehicle: suspension in saline, evaluated on day 15) is 129 % of control. The survivor count (dose: 1200.0 mg/kg/injection, schedule: Q04DX004 (sc), vehicle: suspension in saline) is recorded as 0 of 6 on day 15. For `Oc1c(Cl)cc(C(c2cc(Cl)c(O)c(Cl)c2)C(c2cc(Cl)c(O)c(Cl)c2)c2cc(Cl)c(O)c(Cl)c2)cc1Cl`, the T/C (dose: 225.0 mg/kg/injection, schedule: Q04DX004 (sc), vehicle: Klucel (hydroxypropylcellulose) (HPC), evaluated on day 15) is 149 % of control. As to `COC1C(O)CC(OC2CC(OC3CC(O[C@@H]4C(=O)c5c(cc6cc(OC7CC(OC8CC(O)C(O)C(C)O8)C(O)C(C)O7)c(C)c(O)c6c5O)C[C@H]4[C@H](OC)C(=O)[C@@H](O)[C@@H](C)O)OC(C)C3O)OC(C)C2O)OC1C` (some centres undefined), the survivor count reads like this: (dose: 6.0 mg/kg/injection, schedule: Q01DX010 (sc), vehicle: saline) 0 of 6 on day 20; (dose: 12.0 mg/kg/injection, schedule: Q01DX010 (sc), vehicle: saline) 0 of 6 on day 20; (dose: 24.0 mg/kg/injection, schedule: Q01DX010 (sc), vehicle: saline) 0 of 6 on day 20.
